Results are given in words; binding and its absence hold for the method and conditions named. Binding seen in cells or lysates may run through a third protein. A yes stands for co-enrichment or nearness to the bait. Other partners may have been found.
B1: neuropilin 2 (receptor, UniProt O35375 21-931)
chain: RSQQDPPCGGRLNSKDAGYITSPGYPQDYPSHQNCEWIVYAPEPNQKIVLNFNPHFEIEKHDCKYDFIEIRDGDSESADLLGKHCGNIAPPTIISSGSVLYIKFTSDYARQGAGFSLRYEIFKTGSEDCSKNFTSPNGTIESPGFPEKYPHNLDCTFTILAKPRMEIILQFLTFDLEHDPLQVGEGDCKYDWLDIWDGIPHVGPLIGKYCGTKTPSKLRSSTGILSLTFHTDMAVAKDGFSARYYLIHQEPPENFQCNVPLGMESGRIANEQISASSTFSDGRWTPQQSRLHGDDNGWTPNLDSNKEYLQVDLRFLTMLTAIATQGAISRETQKGYYVKSYKLEVSTNGEDWMVYRHGKNHKIFQANNDATEVVLNKLHMPLLTRFIRIRPQTWHLGIALRLELFGCRVTDAPCSNMLGMLSGLIADTQISASSTREYLWSPSAARLVSSRSGWFPRNPQAQPGEEWLQVDLGTPKTVKGVIIQGARGGDSITAVEARAFVRKFKVSYSLNGKDWEYIQDPRTQQTKLFEGNMHYDTPDIRRFDPVPAQYVRVYPERWSPAGIGMRLEVLGCDWTDSKPTVETLGPTVKSEETTTPYPMDEDATECGENCSFEDDKDLQLPSGFNCNFDFPEETCGWVYDHAKWLRSTWISSANPNDRTFPDDKNFLKLQSDGRREGQYGRLISPPVHLPRSPVCMEFQYQAMGGHGVALQVVREASQESKLLWVIREDQGSEWKHGRIILPSYDMEYQIVFEGVIGKGRSGEISIDDIRISTDVPLENCMEPISAFAGEDFKVDIPETHGGEGYEDEIDDEYEGDWSNSSSSTSGAGDPSSGKEKSWLYTLDPILITIIAMSSLGVLLGATCAGLLLYCTCSYSGLSSRSCTTLENYNFELYDGLKHKVKINHQKCCSEA
B2: RacGAP1 (protein, UniProt Q9WVM1 1-628)
chain: MDTTMVNLWTLFEQLVRRMEIINEGNESIEFIQVVKDFEDFRKKYQRTNQELEKFKDLLLKAETGRSALDVKLKHARNQVDVEIKRRQRAEAECAKLEQQIQLIRDILMCDTSGSIQLSEEQKSALAFLNRGQASSGHAGNNRLSTIDESGSILSDISFDKTDESLDWDSSLVKNFKMKKREKRRSNSRQFIDGPPGPVKKTCSIGSTVDQANESIVAKTTVTVPSDGGPIEAVSTIETLPSWTRSRGKSGPLQPVNSDSALNSRPLEPRTDTDNLGTPQNTGGMRLHDFVSKTVIKPESCVPCGKRIKFGKLSLKCRDCRLVSHPECRDRCPLPCIPPLVGTPVKIGEGMLADFVSQASPMIPAIVVSCVNEIEQRGLTEAGLYRISGCDRTVKELKEKFLKVKTVPLLSKVDDIHVICSLLKDFLRNLKEPLLTFWLSKAFMEAAEITDEDNSTAAMYQAVSELPQANRDTLAFLMIHLQRVSQSPDTKMDIANLAKVFGPTIVAHTVPNPDPVTMFQDIKRQLKVVERLLSLPLEYWNQFMMVDQENIDSQRGNGNSTPRTPDVKVSLLGPVTTPEFQLVKTPLSSSLSQRLYNLSKSTPRFGNKSKSATNLGQQGKFFPAPYLK
B3: caveolae-associated protein-1 (protein, UniProt O54724 1-392)
chain: MEDVTLHIVERPYSGFPDASSEGPEPTQGEARATEEPSGTGSDELIKSDQVNGVLVLSLLDKIIGAVDQIQLTQAQLEERQAEMEGAVQSIQGELSKLGKAHATTSNTVSKLLEKVRKVSVNVKTVRGSLERQAGQIKKLEVNEAELLRRRNFKVMIYQDEVKLPAKLSVSKSLKESEALPEKEGDELGEGERPEDDTAAIELSSDEAVEVEEVIEESRAERIKRSGLRRVDDFKKAFSKEKMEKTKVRTRENLEKTRLKTKENLEKTRHTLEKRMNKLGTRLVPVERREKLKTSRDKLRKSFTPDHVVYARSKTAVYKVPPFTFHVKKIREGEVEVLKATEMVEVGPEDDEVGAERGEATDLLRGSSPDVHTLLEITEESDAVLVDKSDSD

biological target: α5 integrin (mouse (endogenous in mouse lung microvascular ECs)); assay: affinity purification with mass spectrometry; endogenous α5 integrin immunoprecipitated (Dynabeads Protein G with anti-α5 integrin antibody, 4 °C) from mouse microvascular EC lysates: WT/Ctrl, and siNRP1, siNRP2, siNRP1/2, sip120RasGAP ECs; α5.EC KO lysates as control for non-specific binding; LFQ-DIA-MS, Spectronaut, p < 0.01 cutoff; three independent experiments

Binder	binding
B1	binds
B2	binds
B3	binds

Source: article PMC11126613
